Test results as given in PMC10726160.
These are yes or no findings as the source states them, for the method shown. In cells and extracts the contact can be indirect. Some entries that bind do so weakly or less than the wild type.

Protein sequences, listed by entry. Tags and fused reporters are not part of them.
UniProt Q3UHK8: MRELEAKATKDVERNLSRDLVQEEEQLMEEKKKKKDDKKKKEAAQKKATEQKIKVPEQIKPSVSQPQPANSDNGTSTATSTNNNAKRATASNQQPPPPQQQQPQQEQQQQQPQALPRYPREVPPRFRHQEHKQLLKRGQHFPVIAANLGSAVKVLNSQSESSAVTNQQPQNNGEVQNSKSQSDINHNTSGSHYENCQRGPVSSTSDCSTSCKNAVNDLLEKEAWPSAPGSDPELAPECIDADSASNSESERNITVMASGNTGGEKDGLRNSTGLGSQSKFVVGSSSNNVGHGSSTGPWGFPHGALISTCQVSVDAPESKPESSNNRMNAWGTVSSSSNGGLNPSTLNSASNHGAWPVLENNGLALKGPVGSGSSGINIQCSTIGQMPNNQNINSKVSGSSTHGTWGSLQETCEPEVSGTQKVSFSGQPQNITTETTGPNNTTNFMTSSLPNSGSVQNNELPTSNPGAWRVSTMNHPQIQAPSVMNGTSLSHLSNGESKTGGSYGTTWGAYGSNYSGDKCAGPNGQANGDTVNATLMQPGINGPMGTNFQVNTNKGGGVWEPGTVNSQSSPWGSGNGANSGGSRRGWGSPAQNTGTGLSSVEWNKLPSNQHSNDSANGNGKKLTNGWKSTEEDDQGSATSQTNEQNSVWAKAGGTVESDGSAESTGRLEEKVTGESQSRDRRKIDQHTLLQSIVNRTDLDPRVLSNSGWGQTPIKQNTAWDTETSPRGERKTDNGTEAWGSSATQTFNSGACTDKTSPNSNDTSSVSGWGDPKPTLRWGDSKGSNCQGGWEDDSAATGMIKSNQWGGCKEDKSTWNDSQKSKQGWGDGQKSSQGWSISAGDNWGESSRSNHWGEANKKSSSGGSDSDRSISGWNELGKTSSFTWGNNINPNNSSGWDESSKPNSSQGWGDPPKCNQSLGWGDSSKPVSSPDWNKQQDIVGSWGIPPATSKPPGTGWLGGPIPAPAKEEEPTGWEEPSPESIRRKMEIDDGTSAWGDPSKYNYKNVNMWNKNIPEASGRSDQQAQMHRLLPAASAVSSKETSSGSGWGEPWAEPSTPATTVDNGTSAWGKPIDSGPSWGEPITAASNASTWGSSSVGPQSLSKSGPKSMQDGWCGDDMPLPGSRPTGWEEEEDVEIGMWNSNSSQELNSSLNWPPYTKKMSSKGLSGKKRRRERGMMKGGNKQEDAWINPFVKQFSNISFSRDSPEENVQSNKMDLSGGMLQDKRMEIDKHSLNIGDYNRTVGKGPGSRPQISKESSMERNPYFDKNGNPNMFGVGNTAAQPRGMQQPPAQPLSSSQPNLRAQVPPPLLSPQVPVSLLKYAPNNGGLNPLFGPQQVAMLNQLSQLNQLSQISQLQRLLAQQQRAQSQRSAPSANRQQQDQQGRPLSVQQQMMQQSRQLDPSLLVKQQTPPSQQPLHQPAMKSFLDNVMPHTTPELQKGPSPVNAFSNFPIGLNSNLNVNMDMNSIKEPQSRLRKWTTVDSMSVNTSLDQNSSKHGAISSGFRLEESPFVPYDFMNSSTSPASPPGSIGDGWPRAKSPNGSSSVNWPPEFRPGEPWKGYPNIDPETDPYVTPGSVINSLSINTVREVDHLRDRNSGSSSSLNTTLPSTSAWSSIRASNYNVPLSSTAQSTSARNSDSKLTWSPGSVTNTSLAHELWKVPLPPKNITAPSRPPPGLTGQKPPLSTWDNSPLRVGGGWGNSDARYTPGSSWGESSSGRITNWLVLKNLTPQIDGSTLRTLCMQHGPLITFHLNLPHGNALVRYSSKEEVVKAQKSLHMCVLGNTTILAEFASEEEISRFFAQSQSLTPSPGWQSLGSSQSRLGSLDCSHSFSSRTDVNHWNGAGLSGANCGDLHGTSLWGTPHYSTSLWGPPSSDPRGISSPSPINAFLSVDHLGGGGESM
UniProt Q8CJG0: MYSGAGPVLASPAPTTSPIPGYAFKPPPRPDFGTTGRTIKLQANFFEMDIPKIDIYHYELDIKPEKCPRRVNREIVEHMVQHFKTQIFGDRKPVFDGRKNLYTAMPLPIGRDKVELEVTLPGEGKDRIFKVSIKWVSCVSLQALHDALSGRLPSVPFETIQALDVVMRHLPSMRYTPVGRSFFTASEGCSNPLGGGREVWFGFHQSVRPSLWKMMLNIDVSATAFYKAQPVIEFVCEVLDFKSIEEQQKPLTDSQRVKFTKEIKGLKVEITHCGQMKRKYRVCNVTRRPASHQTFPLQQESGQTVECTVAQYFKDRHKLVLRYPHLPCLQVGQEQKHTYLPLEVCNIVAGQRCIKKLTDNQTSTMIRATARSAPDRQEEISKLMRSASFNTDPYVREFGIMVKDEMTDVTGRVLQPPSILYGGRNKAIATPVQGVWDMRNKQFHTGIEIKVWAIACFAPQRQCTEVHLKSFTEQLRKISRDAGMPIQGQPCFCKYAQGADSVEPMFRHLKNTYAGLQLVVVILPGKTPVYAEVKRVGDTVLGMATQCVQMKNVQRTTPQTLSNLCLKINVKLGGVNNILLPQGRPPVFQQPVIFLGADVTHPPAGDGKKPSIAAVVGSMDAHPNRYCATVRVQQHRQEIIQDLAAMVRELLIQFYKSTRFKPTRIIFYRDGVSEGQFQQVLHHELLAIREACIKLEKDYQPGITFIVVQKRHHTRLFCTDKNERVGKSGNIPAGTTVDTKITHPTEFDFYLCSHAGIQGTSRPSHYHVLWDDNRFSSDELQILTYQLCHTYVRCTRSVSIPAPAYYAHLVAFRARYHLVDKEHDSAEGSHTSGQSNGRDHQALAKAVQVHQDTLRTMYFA

Target: TNGW1, the longer isoform of GW182 (TNRC6A) (mouse (endogenous in OT-I CD8+ T cells)) (UniProt Q3UHK8)
Assay: co-IP; anti-GW182 antibody on Protein G Dynabeads; lysates of naive (d0) and d6 activated OT-I CD8+ T cells, 2 x 10^7 cells per IP; bound and unbound fractions blotted with Ago2 and GW182 antibodies

binding: binds weakly
Substance: Argonaute 2 (Ago2) (from UniProt Q8CJG0 1-860)
